From article PMC11036802

T1: PfEAF2::GFP (endogenous PfEAF2 tagged with GFP) (P. falciparum (endogenous in 3D7 parasites)) (UniProt C6KTC1)
T1 sequence: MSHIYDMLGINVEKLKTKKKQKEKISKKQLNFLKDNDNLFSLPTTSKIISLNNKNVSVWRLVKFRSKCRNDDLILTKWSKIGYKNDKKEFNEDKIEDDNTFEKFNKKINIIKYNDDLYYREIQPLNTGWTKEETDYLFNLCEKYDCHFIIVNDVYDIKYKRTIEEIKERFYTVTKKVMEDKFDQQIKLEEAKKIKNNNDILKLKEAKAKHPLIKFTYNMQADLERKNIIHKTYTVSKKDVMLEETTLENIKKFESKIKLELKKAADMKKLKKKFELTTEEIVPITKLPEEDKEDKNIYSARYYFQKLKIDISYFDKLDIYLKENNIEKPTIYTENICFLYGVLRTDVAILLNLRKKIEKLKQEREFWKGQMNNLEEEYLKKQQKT

T2: PfMYST::PTP (endogenous PfMYST with a C-terminal PTP tag) (P. falciparum (endogenous in 3D7 parasites)) (UniProt Q8III2)
T2 sequence: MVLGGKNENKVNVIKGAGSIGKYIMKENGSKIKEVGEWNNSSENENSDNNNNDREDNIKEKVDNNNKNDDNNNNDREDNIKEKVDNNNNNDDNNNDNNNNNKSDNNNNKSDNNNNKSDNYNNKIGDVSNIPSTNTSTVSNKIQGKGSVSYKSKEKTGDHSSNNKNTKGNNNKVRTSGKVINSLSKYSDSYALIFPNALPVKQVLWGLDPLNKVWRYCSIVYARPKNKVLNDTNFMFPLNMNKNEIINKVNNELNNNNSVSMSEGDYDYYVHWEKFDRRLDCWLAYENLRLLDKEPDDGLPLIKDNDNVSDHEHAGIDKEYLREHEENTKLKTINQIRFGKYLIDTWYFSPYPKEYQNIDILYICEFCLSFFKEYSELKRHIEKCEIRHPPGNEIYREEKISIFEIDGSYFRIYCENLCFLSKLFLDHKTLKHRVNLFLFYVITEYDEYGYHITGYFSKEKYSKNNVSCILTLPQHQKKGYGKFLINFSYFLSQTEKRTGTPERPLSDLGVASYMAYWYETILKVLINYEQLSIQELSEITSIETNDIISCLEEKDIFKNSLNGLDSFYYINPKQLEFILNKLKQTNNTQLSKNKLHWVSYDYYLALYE

B1: PfYNG2 (protein, UniProt Q8IJM3 1-971)
chain: MSDSAQVFMDNVYHLTGYLHRLLFLMKELDKKEHKINIGIERKEEVYLEKLYYAHKNKLENHIKHNYENSNTDSHDSHNEDNNEKKHDISIENVLKKMKKKKKSDLCINHDNHLNNEGDERKNVDKENNNMDMSNEFIKEEEANNIENIKSEGYVQSDEKKIKIKIKQDCIDIKENGNCDDNNNIDDNNNIDDNNYIDDNNIDDDDNNNVDNADNHHGKENKYKKKNSTISHDNDKMDEHANFNHTEENSNDGLYNNVNFKNNIISEGEEESRKEQEKKQNEKNEENEKNEKNEENEKNEENEKNEENEKNEKNEENEKNEENEKNEKNETKEHPTVNPVFNNNDIKQNILKEDEKDIDFLFNDEEMNKYLNEIINDREQCMALLREKICINNQIAYMIKHDYEKLKKQYDKLYTEMEMNGEVLPHMFNSSKNKYTTNEYEEYYNVKNKNIYAIDYHQYEDTYDMVNYMNKTKEEEEEQEEEEEEEEEEEEKEEEKDEYEENDDIEEEEDDDDEDEKEEINKKKKKKKKKKKERHIKDEQNKDKYGKDKNVKDKNVKDKNVKDKNVKDKNVKDKNVKDKNVKDKNVKDKNVKDKIIKEEKEGQNDIHEYESESSKHNIPRKSLSKKHSIKYDDEYIPYISDKVKRYKKHKKNKTQNDEPSSKSNKIGIEKMDGEKNNDEVKNNDEVKNNDVVKNNDEVKNNDVVKNNDEVKNNDDIKNKDDIKNNDDIKNNDDIKNNDEVKNNDEVKNNDDVKNNDNIKNNDDIKNNDDIKNIGEVKSTEGAKKNKESKLHSVKKNEDGNKSKEINQNSDMNKSNEINKNKSYEKIKSKSVDFNKNVLNTEKIKSKSVEYNKNIINTEKAKSKSKSVEINKNSKAINKSKNNDNKNKYKTKNKSKNVNISTDHTNNNNNNNNYKQVIKNCSNIQTNKNNSEENKTTNHAKKNESLSSYTSSLFDINQNEETTLGNLTKNEK
B2: PfALP2a (protein, UniProt Q8IIW6 1-499)
chain: MFQNIQTIILDINDGEMKTGYSGECTPRYNSNLILGLPLGHNATLKHTIFPLLPNVKRDNVELLYGIKYIYDENNNSRYDINFDVMEKLFEGISGSKALDDNFQDHPILLTEPNKTDRKYREKFTELMFESYNVYQLFLSRRSVLSCYGCARTSGLVLHVEKNCTNLCGIQEGYVFQKHIEEAPIGGDLIDRIYLSYLENIKNLKIYPYFSIEKNTNNLDNKNYDIKILKCPLVTKSYYLWGSLYVVNQMKENIINDSQNITEKNKNKNNNNNNSDLYEHKNVYKLPDGQIIDDNTTESLKLIFPYIFFRKKYNQNNINKLCTNTEIFQNFDFNEFYNSLKNLKLPILHKYNYKINTTNSIIEKIPDNSLDKTTNICYSDQIDSFFEIFDGLQDFIKKGILSFISSNINIDDVLNFLIITGESTMLHNFVGLLKSYLPFIDTIKEKSTKLIYSKGPDRKCNCFIGASILSSLGTFPQFCMTKSEYEEYGVRNIVDKKCA
B3: PfEAF6 (protein, UniProt C0H4T2 1-104)
chain: MKHKVKRDIMKCKKKLESSIKALEEKILRLELEYHKNCNVNGGNLIKGWESHLRKTPLEPLSFRTFRDDYGDSYVERMLSLTSCTSPATALFPSEDTIREKRKM
B4: PfEPL1 (protein, UniProt C0H5C0 1-958)
chain: MTKGGSNHKNNKIKPIDINKKLLIIKCNDDIRKLINKESPSVDEINEIKNLLENNEVKIEKKKRNIVIPRFKICEDSEEEKNIKNKDTINNDEKRKDNINDDEKRKDNINNDAEKNKSLSDDNNNNNNNNNNYDYDNDDEKKYSITKFEKPSHYIRYELYKDQVTGIKLSDGSIIHYDLLKEDEIFLEGLNSYLNIHVNDESFSKLIDKFEKLTGNSDNKEEINFKEALKAASDLKINYKSNVIKDIYTYWKNKRKKLGRPLLRMFWNNSQNSLPHYSVFRPRVKEKMTLRKHKKKNSEIIIKMQELIQDFRRLDRILRKIKQRDEKKLLLLQLNAILFDQRINEIQDKTYVCPMWNYFKDYKIEKIYKKFKKDKYYKNSYHHHYNNNSNNNKYYYDEKEYENYNFDANEDGYVNHNYMDEYMNDNMDEYLNNNIDAHSHYNYRDSIYNRKINKKLKHYIIHPEQKNVLKINPSEYKNVVLIKRRGRSNRMWVDRKYVDENNINNHEINYCDLSYAFNDFVEASLTLKKNYEEDVSNYLSGRTRIPIKLDIRKRDLKNVGDFNTSLFCNNQIHDDSLFNGMYDELNGERKRKRRKKKEQENLNVDENYINSNILLDNMGDQFALQANNNIHLDKTKASLNDNNNNNIIICNNNLDIIQKNSTTNVNVDSSNMNTTNIVTCDRTSITNDHDANNTDIKLNYFINKGNKINMNEPDYNTNLLFHKNNTEENMLNQYIQNKNNLYNINNINNINSNIKINEDNTKMVSHNILSLEHQNLKNQDFYEKYVSTNITNNYNNNNNNNIPYPLVSRNDKYAPCIFSKEQNNKTIFHFEDMIDPLMNKDNYLFCLSKYVYVQKKILFYLEHLLNFDNYNFKSKKKELPNNKDMNINLKINTNDNINNDSLNNDNINKDNINCDDINNKKNDDLINNTLSELNGTCLKSKVSHKSLKHKTAKDNNIK

Target: T1, PfEAF2::GFP (endogenous PfEAF2 tagged with GFP) (P. falciparum (endogenous in 3D7 parasites))
Test: affinity purification with mass spectrometry; single-step pulldown of PfEAF2::GFP with GFP-trap beads from lysates of 10^9 parasites; LC-MS/MS, same SAINT thresholds; three replicates

Row | binding | Binder
1 | binds | B1
2 | binds | B2
3 | binds | B3
4 | binds | B4

Target: T2, PfMYST::PTP (endogenous PfMYST with a C-terminal PTP tag) (P. falciparum (endogenous in 3D7 parasites))
Test: affinity purification with mass spectrometry; tandem affinity purification (IgG agarose beads, TEV protease, anti-protein C beads) of PfMYST::PTP from nuclear extracts of 10^9 asexual blood-stage parasites in PA150 buffer (150 mM KCl, 20 mM Tris-HCl pH 7.7, 3 mM MgCl2, 0.5 mM DTT, 0.1% Tween 20), 4°C; WT 3D7 as control; LC-MS/MS, SAINT probability above 95%, FDR below 1%; three replicates

Row | binding | Binder
5 | binds | B1
6 | binds | B2
7 | binds | B3
8 | binds | B4

Results are given in words; binding and its absence hold for the method and conditions named. Binding seen in cells or lysates may run through a third protein. Here binding means that the protein was enriched with, or labelled near, the bait; the list need not be complete. Where a sequence is shown, tags or fusion partners need not be part of it.
